Measurements reported in PubChem BioAssay AID1259405 (NCATS, 2018).
Here is one part, drawn at random, of about 50,000 deposited reagents. Over the whole deposit, about 4,000 (8%) were called active. 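Mouse siRNA library applied to hamster cells; one well for each siRNA.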 The numbers tell different reagents against one gene apart.

Aim: 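Silenced genes that increase secreted GFP made by CHO cells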 (primary screen)
Cell system: Chinese hamster CHO-K1 ovary cells with stable secreted eGFP expression
Knock-down reagent: single siRNA against mouse genes, 0.8 pmol siRNA per well (2 µl of 400 nM stock)
Timing: 3 days
Detection: 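Per-well intracellular GFP measured by laser scanning cytometry, plus viability from ATP luminescence, each relative to plate median of non-targeting control wells, in %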
Reading the numbers: GFP, % of control: higher = more GFP per well, higher productivity; viability (ATP), % of control: higher = more viable cells (more ATP)
Call rule: 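Called active when intracellular GFP, relative to negative control, is at or above 120%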

Tex261 #1 | GFP, % of control: 64.7; viability (ATP), % of control: 91.7; Call: inactive
Tex261 #2 | GFP, % of control: 77.7; viability (ATP), % of control: 131; Call: inactive
Tex261 #3 | GFP, % of control: 183; viability (ATP), % of control: 138; Call: active
Flt1 | GFP, % of control: 38.1; viability (ATP), % of control: 57.6; Call: inactive
Or4a71 #1 | GFP, % of control: 99; viability (ATP), % of control: 88.4; Call: inactive
Or4a71 #2 | GFP, % of control: 100; viability (ATP), % of control: 84.3; Call: inactive
Or4a71 #3 | GFP, % of control: 91.3; viability (ATP), % of control: 121; Call: inactive
Kansl3 #1 | GFP, % of control: 63.5; viability (ATP), % of control: 80.8; Call: inactive
Kansl3 #2 | GFP, % of control: 48.1; viability (ATP), % of control: 82.9; Call: inactive
Kansl3 #3 | GFP, % of control: 98.2; viability (ATP), % of control: 124; Call: inactive
Rnf135 #1 | GFP, % of control: 103; viability (ATP), % of control: 105; Call: inactive
Rnf135 #2 | GFP, % of control: 144; viability (ATP), % of control: 114; Call: active
Rnf135 #3 | GFP, % of control: 88.7; viability (ATP), % of control: 138; Call: inactive
Capsl #1 | GFP, % of control: 107; viability (ATP), % of control: 86.7; Call: inactive
Capsl #2 | GFP, % of control: 68.7; viability (ATP), % of control: 45.8; Call: inactive
Capsl #3 | GFP, % of control: 49.7; viability (ATP), % of control: 64.1; Call: inactive

Next part (5 carried over from the part before).
Rnf135 #2 | GFP, % of control: 144; viability (ATP), % of control: 114; Call: active
Rnf135 #3 | GFP, % of control: 88.7; viability (ATP), % of control: 138; Call: inactive
Capsl #1 | GFP, % of control: 107; viability (ATP), % of control: 86.7; Call: inactive
Capsl #2 | GFP, % of control: 68.7; viability (ATP), % of control: 45.8; Call: inactive
Capsl #3 | GFP, % of control: 49.7; viability (ATP), % of control: 64.1; Call: inactive
Ufsp1 #1 | GFP, % of control: 75.1; viability (ATP), % of control: 116; Call: inactive
Ufsp1 #2 | GFP, % of control: 55.9; viability (ATP), % of control: 30.1; Call: inactive
Ufsp1 #3 | GFP, % of control: 103; viability (ATP), % of control: 124; Call: inactive
Naaa #1 | GFP, % of control: 110; viability (ATP), % of control: 101; Call: inactive
Naaa #2 | GFP, % of control: 72.5; viability (ATP), % of control: 81.3; Call: inactive
Axin1 #1 | GFP, % of control: 87.9; viability (ATP), % of control: 80.8; Call: inactive
Axin1 #2 | GFP, % of control: 87.5; viability (ATP), % of control: 70.9; Call: inactive
Axin1 #3 | GFP, % of control: 105; viability (ATP), % of control: 115; Call: inactive
Ccl20 #1 | GFP, % of control: 59.6; viability (ATP), % of control: 52; Call: inactive
Ccl20 #2 | GFP, % of control: 35.2; viability (ATP), % of control: 25.1; Call: inactive
Ccl20 #3 | GFP, % of control: 61.1; viability (ATP), % of control: 68.4; Call: inactive
Zbtb5 #1 | GFP, % of control: 55.3; viability (ATP), % of control: 45; Call: inactive
Zbtb5 #2 | GFP, % of control: 82.4; viability (ATP), % of control: 45.5; Call: inactive
Zbtb5 #3 | GFP, % of control: 102; viability (ATP), % of control: 95.8; Call: inactive
Aire #1 | GFP, % of control: 55.9; viability (ATP), % of control: 62.7; Call: inactive
Aire #2 | GFP, % of control: 82.5; viability (ATP), % of control: 75.5; Call: inactive
Ranbp10 #1 | GFP, % of control: 35.7; viability (ATP), % of control: 22.1; Call: inactive
Ranbp10 #2 | GFP, % of control: 75.7; viability (ATP), % of control: 78.7; Call: inactive
Ranbp10 #3 | GFP, % of control: 101; viability (ATP), % of control: 87.9; Call: inactive
Col9a2 #1 | GFP, % of control: 82.3; viability (ATP), % of control: 122; Call: inactive
Col9a2 #2 | GFP, % of control: 95.5; viability (ATP), % of control: 97.6; Call: inactive
Yae1d1 #1 | GFP, % of control: 115; viability (ATP), % of control: 102; Call: inactive
Yae1d1 #2 | GFP, % of control: 66.4; viability (ATP), % of control: 72.3; Call: inactive
Yae1d1 #3 | GFP, % of control: 158; viability (ATP), % of control: 83.5; Call: active
